Values of other authors as cited in US20230263909A1, “ENHANCED EFFECTS OF GENE-IMMUNOTHERAPY AND IMMUNOSUPPRESSANTS IN MULTIPLE SCLEROSIS” (University of Florida Research Foundation, Incorporated, priority 2020, published 2023).
“Also recorded” adds a separate entry of the source. For at least one compound, name, drawing or mass did not settle the structure.

System: EAE
Conditions: literature (Esposito et al.); cited from earlier work

For `CO[C@H]1C[C@@H]2CC[C@@H](C)[C@@](O)(O2)C(=O)C(=O)N2CCCC[C@H]2C(=O)O[C@H]([C@H](C)C[C@@H]2CC[C@@H](O)[C@H](OC)C2)CC(=O)[C@H](C)/C=C(\C)[C@@H](O)[C@@H](OC)C(=O)[C@H](C)C[C@H](C)/C=C/C=C/C=C/1C` [rapamycin], the “disease course upon withdrawal of rapamycin” value is given as “rapidly developed a relapsing-remitting form of EAE” and the “effect of rapamycin on EAE under continued use” value is given as “effective in preventing the onset of disease; also recorded: can effectively inhibit the induction and the progression of established disease”.
